Like-named read-outs stand apart in the source and are kept apart here. Some results were stated once for a whole list of compounds, not compound by compound.
Target: TNFα (Homo sapiens, UniProt P01375)
Assay: TNF induced HEK-Blue assay (NF-kB-driven secreted alkaline phosphatase reporter)
Format: cell-based
Summary of the method: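 HEK-Blue-CD40L cells (NF-kB-driven SEAP reporter), 20,000/well, added after 30 min pre-incubation of compound (0.004–25 μM final) with TNFα 0.5 ng/mL final at 37 °C; 18 h incubation. SEAP read with QUANTI-Blue at 620 nm; IC50 from 4-parameter logistic fit, normalized to unstimulated and stimulated DMSO controls.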

The chains behind the UniProt entries cited, without tags or fusion partners. Residues count along the entry.
UniProt P01375, 77-233 limits assumed: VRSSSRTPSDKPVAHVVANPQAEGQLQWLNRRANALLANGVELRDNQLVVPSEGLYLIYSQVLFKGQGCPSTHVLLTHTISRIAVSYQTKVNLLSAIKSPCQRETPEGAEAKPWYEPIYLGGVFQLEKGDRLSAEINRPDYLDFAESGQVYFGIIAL

[1] = TNFα 0.5 ng/mL, HEK-Blue-CD40L cells, 18 h; read-out: IC50 values measured in the TNF induced HEK-Blue assay

SMILES | IC50 [1] [µM] | IC50 (read-out: IC50 values measured in the TNF induced HEK-Blue assay; TNFα 0.5 ng/mL, HEK-Blue-CD40L cells, 18 h) [µM]
CC#CC(=O)N1CCN(c2ccc(-c3ccc4ncc(Cl)c(N[C@H](C)c5ccccc5F)c4c3)cn2)CC1 [Example 125, (R)-1-(4-(5-(3-chloro-4-((1-(2-fluorophenyl)ethyl)amino)quinolin-6-yl)pyridin-2-yl)piperazin-1-yl)but-2-yn-1-one] | ≤ 25 | 
Cc1nc2cc(F)c(-c3cnc(C(C)(C)O)nc3)nc2c(NC(c2ccccc2)C(F)F)c1Cl (racemic) [Example 214, 2-(5-(7-chloro-8-((2,2-difluoro-1-phenylethyl)amino)-3-fluoro-6-methyl-1,5-naphthyridin-2-yl)pyrimidin-2-yl)propan-2-ol] | ≤ 25 | 
Cc1ccc(C)c(Nc2c(Cl)c(C(=O)N(C)C)nc3ccc(-c4ccc(C#N)nc4)cc23)c1 [Example 34, 3-chloro-6-(6-cyanopyridin-3-yl)-4-((2,5-dimethylphenyl)amino)-N,N-dimethylquinoline-2-carboxamide] | ≤ 25 | 
C[C@@H](Nc1c(Cl)cnc2ccccc12)c1cc(OCCCO)ccc1F [Example 458, (R)-3-(3-(1-((3-chloroquinolin-4-yl)amino)ethyl)-4-fluorophenoxy)propan-1-ol] | ≤ 25 | 
OC[C@@H]1CN(c2ncc(-c3ccc4ncc(Cl)c(N[C@@H](c5ccccc5F)C(F)F)c4c3)cn2)CCN1 [Example 86, ((S)-4-(5-(3-chloro-4-(((S)-2,2-difluoro-1-(2-fluorophenyl)ethyl)amino)quinolin-6-yl)pyrimidin-2-yl)piperazin-2-yl)methanol] | ≤ 25 | 
Cc1nc2ccc(-c3cnc(N4CCN(CC(=O)O)CC4)nc3)cc2c(NC(C)c2ccccc2F)c1Cl (racemic) [Example 309, 2-(4-(5-(3-chloro-4-((1-(2-fluorophenyl)ethyl)amino)-2-methylquinolin-6-yl)pyrimidin-2-yl)piperazin-1-yl)acetic acid] | ≤ 25 | 
C[C@@H](Nc1c(Cl)cnc2ccc(-c3cnc(N4CCN(C5CCNC5=O)CC4)nc3)cc12)c1ccccc1F (mixture of isomers) [Example 112, 3-(4-(5-(3-chloro-4-(((R)-1-(2-fluorophenyl)ethyl)amino)quinolin-6-yl)pyrimidin-2-yl)piperazin-1-yl)pyrrolidin-2-one] | ≤ 25 | 
CC(C)(O)c1ncc(-c2ccc3ncc(Cl)c(NC(C)(C)c4ccc(C(F)(F)F)cc4)c3c2)cn1 [Example 185, 2-(5-(3-chloro-4-((2-(4-(trifluoromethyl)phenyl)propan-2-yl)amino)quinolin-6-yl)pyrimidin-2-yl)propan-2-ol] | ≤ 25 | 
CC(Nc1c(Cl)cnc2ccc(-c3ccc(C(C)(C)O)cc3)cc12)c1cccs1 (racemic) [Example 199, 2-(4-(3-chloro-4-((1-(thiophen-2-yl)ethyl)amino)quinolin-6-yl)phenyl)propan-2-ol] | ≤ 25 | 
C[C@@H](Nc1c(Cl)cnc2ccc(-c3ccc(C4(NS(C)(=O)=O)CCC4)cc3)cc12)c1ccccc1F [Example 111, (R)—N-(1-(4-(3-chloro-4-((1-(2-fluorophenyl)ethyl)amino)quinolin-6-yl)phenyl)cyclobutyl)methanesulfonamide] | ≤ 25 | 
C[C@@H](Nc1c(Cl)cnc2ccc(-c3cnc(C(C)(C)O)nc3)cc12)c1cc(C#N)ccc1F [Example 376, (R)-3-(1-((3-chloro-6-(2-(2-hydroxypropan-2-yl)pyrimidin-5-yl)quinolin-4-yl)amino)ethyl)-4-fluorobenzonitrile] |  | ≤ 25
CC(Nc1c(Cl)cnc2cc(F)c(-c3cnc(N4CCNCC4)nc3)cc12)c1ccccc1F (single isomer, unassigned) [Example 608, 3-chloro-7-fluoro-N-(1-(2-fluorophenyl)ethyl)-6-(2-(piperazin-1-yl)pyrimidin-5-yl)quinolin-4-amine] | ≤ 25 | 
C[C@@H](Nc1c(Cl)cnc2ccc(-c3cnc(C(C)(C)O)nc3)cc12)c1cc(-n2cccn2)ccc1F [Example 366, (R)-2-(5-(3-chloro-4-((1-(2-fluoro-5-(1H-pyrazol-1-yl)phenyl)ethyl)amino)quinolin-6-yl)pyrimidin-2-yl)propan-2-ol] | ≤ 25 | 
CC(Nc1c(Cl)cnc2cc(F)c(-c3cc(F)c(C(C)(C)O)c(F)c3)cc12)c1ccccc1F (stereo not drawn) [Example 268, 2-(4-(3-chloro-7-fluoro-4-((1-(2-fluorophenyl)ethyl)amino)quinolin-6-yl)-2,6-difluorophenyl) propan-2-ol] | ≤ 25 | 
CC(C)(O)c1ncc(-c2ccc3ncc(Cl)c(NC(C)(C)c4cccc(C(F)(F)F)c4)c3c2)cn1 [Example 182, 2-(5-(3-chloro-4-((2-(3-(trifluoromethyl)phenyl)propan-2-yl)amino)quinolin-6-yl)pyrimidin-2-yl)propan-2-ol] | ≤ 25 | 
COC(=O)CN1CCN(c2ncc(-c3ccc4ncc(Cl)c(N[C@@H](c5ccccc5F)C(F)F)c4c3)cn2)CC1 [Example 14, (S)-methyl 2-(4-(5-(3-chloro-4-((2,2-difluoro-1-(2-fluorophenyl)ethyl)amino)quinolin-6-yl)pyrimidin-2-yl)piperazin-1-yl)acetate] | ≤ 25 | 
CCCC(C)C(=O)c1c(Cl)c(C)nc2ccc(-c3cnc(C(C)(C)O)nc3)cc12 (racemic) [Example 356, ± 1-(3-Chloro-6-(2-(2-hydroxypropan-2-yl)pyrimidin-5-yl)-2-methylquinolin-4-yl)-2-methylpentan-1-one] | ≤ 25 | 
CC(Nc1c(Cl)cnc2cc(F)c(-c3ccc(C(O)C4CC4)cc3)cc12)c1ccccc1F (stereo not drawn) [Example 261, (4-(3-chloro-7-fluoro-4-((1-(2-fluorophenyl)ethyl)amino)quinolin-6-yl)phenyl)(cyclopropyl) methanol] | ≤ 25 | 
Cc1ccc(C)c(Nc2c(Cl)c(N)nc3ccc(-c4cnc(NC(CO)CO)nc4)cc23)c1 [Example 71, 2-((5-(2-amino-3-chloro-4-((2,5-dimethylphenyl)amino)quinolin-6-yl)pyrimidin-2-yl)amino)propane-1,3-diol] | ≤ 25 | 
CC(Nc1c(Cl)cnc2ccc(-c3ccc(C(C)(C)O)cc3)cc12)c1cscn1 (racemic) [Example 202, 2-(4-(3-chloro-4-((1-(thiazol-4-yl)ethyl)amino)quinolin-6-yl)phenyl)propan-2-ol] | ≤ 25 | 
Cc1nc2ccc(-c3cnc(N4CCS(=O)(=O)CC4)nc3)cc2c(NC(C)c2ccccc2F)c1Cl (racemic) [Example 310, 4-(5-(3-chloro-4-((1-(2-fluorophenyl)ethyl)amino)-2-methylquinolin-6-yl)pyrimidin-2-yl)thiomorpholine 1,1-dioxide] | ≤ 25 | 
CC(Nc1c(Cl)cnc2ccc(-c3cnc(C(C)(C)O)nc3)cc12)c1cc(Cl)ccn1 (racemic) [Example 62, 2-(5-(3-chloro-4-((1-(4-chloropyridin-2-yl)ethyl)amino)quinolin-6-yl)pyrimidin-2-yl)propan-2-ol] | ≤ 25 | 
C[C@@H](Nc1c(Cl)cnc2cc(F)c(-c3ccc(N4CCN(CC(=O)O)CC4)cc3)cc12)c1ccccc1F [Example 280, (R)-2-(4-(4-(3-chloro-7-fluoro-4-((1-(2-fluorophenyl)ethyl)amino)quinolin-6-yl)phenyl)piperazin-1-yl)acetic acid] | ≤ 25 | 
Cc1nc2cc(F)c(-c3cnc(C(C)(C)O)nc3)cc2c(N[C@H](C)c2cccc(C(N)=O)c2)c1Cl [Example 394, (R)-3-(1-((3-chloro-7-fluoro-6-(2-(2-hydroxypropan-2-yl)pyrimidin-5-yl)-2-methylquinolin-4-yl)amino)ethyl)benzamide] | ≤ 25 | 
